Experiment [1] deals with T1, NLRP1 E1322R (interface IIIa mutant), full length, FLAG-tagged (human) (UniProt Q9C000).
T1 sequence: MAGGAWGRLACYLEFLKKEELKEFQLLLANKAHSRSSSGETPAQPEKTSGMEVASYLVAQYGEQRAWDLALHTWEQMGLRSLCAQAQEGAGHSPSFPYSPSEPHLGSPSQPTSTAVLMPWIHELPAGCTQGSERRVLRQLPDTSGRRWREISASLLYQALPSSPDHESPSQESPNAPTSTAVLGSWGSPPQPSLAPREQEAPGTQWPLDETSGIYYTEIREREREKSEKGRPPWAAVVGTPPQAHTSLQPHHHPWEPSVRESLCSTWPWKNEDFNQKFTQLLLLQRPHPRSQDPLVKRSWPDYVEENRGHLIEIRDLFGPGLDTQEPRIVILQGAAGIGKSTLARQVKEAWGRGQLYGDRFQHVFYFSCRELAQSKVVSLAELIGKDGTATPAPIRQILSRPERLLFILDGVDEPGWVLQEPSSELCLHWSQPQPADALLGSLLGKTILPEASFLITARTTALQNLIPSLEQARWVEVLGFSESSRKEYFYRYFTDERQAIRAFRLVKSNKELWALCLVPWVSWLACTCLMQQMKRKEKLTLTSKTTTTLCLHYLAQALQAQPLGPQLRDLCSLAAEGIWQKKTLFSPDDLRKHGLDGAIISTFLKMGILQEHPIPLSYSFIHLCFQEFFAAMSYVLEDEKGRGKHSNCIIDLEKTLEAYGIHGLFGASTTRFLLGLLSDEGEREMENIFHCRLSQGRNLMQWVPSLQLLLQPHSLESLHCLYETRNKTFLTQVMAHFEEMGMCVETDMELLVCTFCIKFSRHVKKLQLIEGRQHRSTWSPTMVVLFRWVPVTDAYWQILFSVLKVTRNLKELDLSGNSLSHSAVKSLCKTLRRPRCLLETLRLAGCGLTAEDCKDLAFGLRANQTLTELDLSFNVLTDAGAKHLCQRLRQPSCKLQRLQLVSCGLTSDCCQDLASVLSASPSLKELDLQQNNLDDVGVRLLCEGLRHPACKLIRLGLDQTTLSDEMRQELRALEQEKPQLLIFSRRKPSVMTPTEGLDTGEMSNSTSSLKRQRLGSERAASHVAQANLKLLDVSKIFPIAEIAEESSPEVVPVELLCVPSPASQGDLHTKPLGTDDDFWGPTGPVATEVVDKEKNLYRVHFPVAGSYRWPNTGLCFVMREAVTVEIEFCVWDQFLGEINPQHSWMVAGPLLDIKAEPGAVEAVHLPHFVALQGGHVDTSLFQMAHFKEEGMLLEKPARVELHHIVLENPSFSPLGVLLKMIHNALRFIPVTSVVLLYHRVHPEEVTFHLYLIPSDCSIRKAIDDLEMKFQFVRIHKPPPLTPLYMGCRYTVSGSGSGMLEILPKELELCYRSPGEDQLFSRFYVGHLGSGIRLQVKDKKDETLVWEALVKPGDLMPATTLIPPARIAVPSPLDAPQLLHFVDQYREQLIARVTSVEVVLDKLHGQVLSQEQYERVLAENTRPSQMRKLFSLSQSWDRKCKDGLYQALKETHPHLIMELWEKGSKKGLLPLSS
The experiment is described as follows: co-IP.

The target in experiment [2] is T2, NLRP1 K1277E (interface IIIb mutant), full length, FLAG-tagged (human) (UniProt Q9C000).
T2 sequence: T1 sequence with K1277E, R1322E
The experiment is described as follows: co-IP.

Residue numbers refer to the chain shown, from its start. Results are given in words; binding and its absence hold for the method and conditions named. Binding seen in cells or lysates may run through a third protein. Some entries that bind do so weakly or less than the wild type. Tags and fused reporters may be left off the sequences shown.

For the substance “DPP9, short isoform, N-terminal His tag (His-TEV-DPP9), wild type, for co-immunoprecipitation (from UniProt Q86TI2-1 1-863) (enzyme)”, the binding result in experiment [1] and in experiment [2] was “binds weakly” in each case.

Values taken from article doi:10.1101/2020.08.14.246132.
